Results of single-concentration screens

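Growth of Mycobacterium tuberculosis over 4 days (cholesterol / DPPC medium with tyloxapol); the read-out is not stated. Compounds at 50 µM. Higher reads as more growth inhibition (inferred: compounds with an IC50 in retests scored well above the rest). About 69,000 compounds were tested under these conditions; 0.54% (about 370) showed 50% or more at least once.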

Each number is a percent effect as filed.
The controls that fix the scale are not given in the record; negative values are as filed.
The compounds are a random part of those screened.
Two or more numbers in one place are separate tests of the same structure; such repeats can differ widely.

Compound	Percent Effect
CC1CN(c2ncnc3c2cnn3C)CCN1c1nccs1 (stereo not shown)	4.194
Cc1ccc(CN(CCCO)Cc2nc3ccccc3[nH]2)s1	-10.07
CCc1nnc2n1CCN(C(C(=O)NC1CC1)c1ccc(F)cc1)C2 (stereo not shown)	11.13
CCOCC1CN(C(=O)c2cscn2)Cc2cnn(CC3CC3)c21 (stereo not shown)	-13.85
[H][C@@]12CC[C@@]([H])(C1)N(CC(=O)N1CCN(c3ccc(C)cc3)C(=O)C1)C2	-31.62
CCc1cccc(-n2nnc(C(=O)O)c2-c2ccncc2)c1	-5.721
N#CC1(NC(=O)COC(=O)Cc2cc(Cl)c3c(c2)OCCO3)CCCC1	-8.565 & 6.798
CC(C)(C)NC(=O)c1nn(C2CCS(=O)(=O)C2)c2c1CCCC2 (stereo not shown)	1.631
[H][C@@]12C[C@@H](Oc3cccnc3)CN1CCN(C(=O)c1cnccn1)C2	1.955
CN(CC(=O)N1CCOCC(CO)C1)Cc1ccccn1 (stereo not shown)	-2.799
Cn1ncc(C(=O)N2CCN(C(=O)c3ccco3)CC2)c1Cl	8.132
Cc1nc(C)n(CC2CCCN2Cc2cn3ccccc3n2)n1 (stereo not shown)	18.11
COc1c(C(=O)NCc2cccnc2)nnn1Cc1ccc(C)cc1	3.041
Cc1noc(C)c1C(=O)N1CCCN(C)c2ccc(Cl)cc21	-4.342
CCn1cc(S(=O)(=O)N2CCCCCC2c2cc(C)no2)cn1 (stereo not shown)	6.672
CC(Cn1cncn1)Nc1ccc(-c2nccn2C)nn1 (stereo not shown)	17.08
COC(=O)c1cccc(S(=O)(=O)NC(=O)c2cccc(OC)c2OC)c1	-0.151
O=C(NCC(O)c1ccoc1)Nc1cccs1 (stereo not shown)	20.24
O=C(CS(=O)(=O)Cc1cccc(Br)c1)Nc1cn[nH]c1	13.38
CCC(=O)N1C[C@@H](C(=O)NC)[C@H](c2ccnc(N3CCCC3)n2)C1.Cl	-9.151 & 3.832
[H][C@@]12CCN(C[C@@H]1CC)[C@@H](CNC(=O)Nc1ccccc1)C2	-1.961
CC(C)c1cc(C(=O)N2CCc3nc(C4CCCN4)ncc3C2)cs1.Cl (stereo not shown)	11.54
CCn1nccc1C(=O)NC(Cn1cccn1)C(C)(C)C (stereo not shown)	-13.59
O=C(CCCn1cncn1)N1CCC2(CCCNC2=O)C1 (stereo not shown)	7.147
Cc1cccc(NC(=O)N2CCCn3cnc(CN4CCCC4)c3C2)c1.O=C(O)C(F)(F)F	0.06536 & -0.3962
O=C(C1CCC1)N1CCc2[nH]cnc2C12CCN(C1CCOCC1)CC2	-6.311
COCC(=O)NCc1cnc(C)nc1-c1cn(C)c2ccc(OC)cc12	9.094
COc1ccc2cnn(CC(=O)NC3CCCC3)c(=O)c2c1OC	-10.8
CN(C)CCNC(=O)C1Cc2nc(-c3ccsc3)sc2N1CC1CC1.O=C(O)C(F)(F)F (stereo not shown)	8.186
CCOC1CCCN(C(=O)Nc2cnn(CC(F)F)c2)C1 (stereo not shown)	-13.83
O=C1CCCN1CCCN1CCCCC1Cn1cncn1 (stereo not shown)	-20.83
CNc1ccc(CC2CCCN(C(=O)c3cnccn3)C2)nn1 (stereo not shown)	-4.639
COCC(=O)Nc1ccc(C)cc1-c1nc(C2CC2)no1	3.167
CCOc1cc(C(=O)N2CCN(CC)CC2)cc2occc12	1.135
CC(C)c1nc2c(n1C)CCN(CC(=O)Nc1cccnc1)C2	10.52
CCN(Cc1cccc(F)c1)Cc1nc2c(cnn2C)c(=O)[nH]1	-13.63
NC(=O)CN1CCOCC(Cc2ccccc2Cl)C1 (stereo not shown)	-10.4
Cc1noc(C(C)C)c1C(=O)NCC(c1cccs1)N(C)C (stereo not shown)	-19.36
O=C(CCN1CCc2ccccc21)N1C[C@@H](O)[C@H](N2CCCC2)C1	-0.9735
O=C(O)C(F)(F)F.[H][C@]12CCCN(Cc3ccsc3)[C@@]1([H])CN(S(C)(=O)=O)C2	-23.86
CC(=O)N1CCN(CC(=O)N2CCN(c3cccc(C)c3)CC2)CC1	-6.774 & -2.209
Cc1occc1CNC(=O)C1CCCN1C(=O)C1CC1 (stereo not shown)	9.138
Cc1cnn(CC2CN(CCCc3nc4ccccc4o3)CCO2)c1 (stereo not shown)	1.151
CCN1CCN(c2ncc3c(n2)CN(c2cnn(CC)c2)C3=O)CC1	17.26
Cc1cccc(CN2CCOCC2c2[nH]ncc2C)n1 (stereo not shown)	-6.824 & -6.199
Cc1cccc(CCC(=O)Nc2ccnn2C2CCS(=O)(=O)C2)c1 (stereo not shown)	-13.03
CCc1noc(C(C)N2CCC(NS(=O)(=O)c3ccccc3)CC2)n1 (stereo not shown)	-5.592
CCOCCN1CCN(Cc2nnc(-c3ccco3)o2)CC1	-3.499
Clc1cccc(C(CNCc2cccnc2)N2CCOCC2)c1 (stereo not shown)	-37.65
O=S(=O)(NCc1ccccc1Cn1cncn1)C1CCCC1	-13.74
Fc1cnc(N2CCOC3(CCN(Cc4cccs4)CC3)C2)nc1.O=C(O)C(F)(F)F.O=C(O)C(F)(F)F	-10.71
CCOCC1CC2(CCN(C(=O)C3CCSCC3)CC2)CO1 (stereo not shown)	-17.52
CCc1ccccc1NC(=O)NCc1nnc(SC)n1C	4.11 & 72.7
Cc1nnc2n1CCN(C(=O)c1cc(Br)c(Cl)[nH]1)C2	4.617
COc1c(CNCc2cccc(CN(C)C)c2)c(C)nn1C.Cl	11.56
O=C(O)C(F)(F)F.O=C(O)C(F)(F)F.[H][C@@]12C[C@@H](C(=O)Nc3cccnc3)CN(Cc3ccsc3)[C@]1([H])CCO2	-21.54
O=C(O)C(F)(F)F.[H][C@@]12CCN(C3CCCC3)C[C@]1([H])OCCN(Cc1ccc(OC)cc1)C2=O	-7.794
O=C(COCc1ccco1)Nc1cc(C(F)(F)F)c[nH]c1=O	-10.88
COc1ccc2[nH]cc(C(=O)N3C[C@@H](O)[C@H](N4CCOCC4)C3)c2c1	-13.58
COc1ccc(OC)c(CN(C)c2nc3c(cnn3C)c(=O)[nH]2)c1	-4.942
CN(C)Cc1cnc(C2CCN(C(=O)c3cccc(Cl)c3)C2)[nH]1 (stereo not shown)	-13.27 & -8.119
Cc1cc(C)n(CC(=O)N2CCC(c3nc(C)no3)CC2)n1	-16.99
CCC(C)c1noc(C2CCN(C(=O)c3ccccn3)CC2)n1 (stereo not shown)	-30.48
Cc1c(C(=O)O)sc2nc(Cc3ccccc3)nc(N)c12	10.55
COc1ccc(C[C@H]2CN(Cc3ccoc3)CC[C@@H]2OC)cc1.O=C(O)C(F)(F)F	6.374
O=C(NC1CCC(C(=O)N2CCSCC2)CC1)N1CCOCC1 (stereo not shown)	-7.29
NC(=O)CCNC(=O)Cc1cccc(I)c1	-18.08
Cc1nc(N2CCN(C)CC2)ncc1C(=O)N1CCCCC1	10.09
O=C(c1nn(-c2ccccc2F)cc1O)N1CCCSCC1	-0.2703
COCC(=O)N1CCC(C(=O)Nc2ccc(S(N)(=O)=O)cc2)CC1	-12.73
CS(=O)(=O)NCC(=O)NC(Cc1ccccc1)C1CCCC1 (stereo not shown)	19.59
COc1ncccc1NC(=O)N(Cc1ccc(C)o1)C1CC1	10.03
COc1ccc(CCCC(=O)N2CCCC(n3cccn3)C2)cc1 (stereo not shown)	-15.63
Cc1cc(-c2nc(C3(NC(=O)OC(C)(C)C)CCC3)no2)on1	33
CC(C)CNC(=O)Cn1ccc2ccccc21	-38.16
COC(=O)c1ccc(N2CCN(CCC#N)C(C)C2)cc1 (stereo not shown)	-8.443
CC(C)S(=O)(=O)N1CCCC(c2cccc(C(=O)O)c2)C1 (stereo not shown)	-15.12
CCOc1ccccc1C(CC(=O)O)NC(C)=O (stereo not shown)	-2.233
CCC1c2ccsc2CCN1C(=O)NCc1ccnc(N(C)C)c1 (stereo not shown)	6.888
COC(=O)c1ccc(N2CCN(C(=O)c3ccc(=O)n(C)c3)CC2)cc1	-2.286
CN(CCCc1cnn(C)c1)C(=O)Nc1cccc2[nH]nnc12	-17.44
Cc1oc(-c2nc(C#N)c(N(C)C)o2)cc1S(=O)(=O)N1CCCCCC1	-26.6
Cn1c(SCC(O)COCc2ccc(Cl)cc2)nnc1C1CC1 (stereo not shown)	10.39
CC(=O)NCc1ccc(C(=O)N2CCCc3c(F)ccc(C)c32)cc1	-7.827
CCOCCn1nc(C)cc1C(=O)N1CCN(C(C)C)C(CC)C1 (stereo not shown)	20.99
Cc1csc(N2CCN(C(=O)c3cc(Cl)c[nH]3)CC2)n1	10.73 & 8.478
CN(C)S(=O)(=O)N1CCCC(c2cccc(Cc3ccc(F)cc3)n2)C1 (stereo not shown)	-23.17
O=C(NCC1CC1)c1cc2c(s1)CCN2C(=O)c1cccnc1	-13.96
CNC(=O)CN1CCCC12CCN(Cc1c[nH]cn1)CC2.O=C(O)C(F)(F)F.O=C(O)C(F)(F)F	-7.831
CC(C)c1nn(C)c(N(C)C)c1CNC(C)c1ccccc1F (stereo not shown)	-25.6

7 of the entries, repeated:

Cc1cc(-c2nc(C3(NC(=O)OC(C)(C)C)CCC3)no2)on1 gave 33%.
O=C(O)C(F)(F)F.[H][C@@]12CCN(C3CCCC3)C[C@]1([H])OCCN(Cc1ccc(OC)cc1)C2=O gave -7.794%.
[H][C@@]12CCN(C[C@@H]1CC)[C@@H](CNC(=O)Nc1ccccc1)C2 gave -1.961%.
CC(C)S(=O)(=O)N1CCCC(c2cccc(C(=O)O)c2)C1 (stereo not shown) gave -15.12%.
CC(C)c1nc2c(n1C)CCN(CC(=O)Nc1cccnc1)C2 gave 10.52%.
CC(=O)NCc1ccc(C(=O)N2CCCc3c(F)ccc(C)c32)cc1 gave -7.827%.
Cc1cc(C)n(CC(=O)N2CCC(c3nc(C)no3)CC2)n1 gave -16.99%.

The values are deposited in ChEMBL (CHEMBL3988442, “University of Dundee, Small-Polar-MMV Screening Library” (2021)).